These are yes or no findings as the source states them, for the method shown. Some results given as binding are weak or reduced against the parent protein; the word gives no strength.
B1: PFKP (enzyme, UniProt Q01813 1-784)
chain: MDADDSRAPKGSLRKFLEHLSGAGKAIGVLTSGGDAQGMNAAVRAVVRMGIYVGAKVYFIYEGYQGMVDGGSNIAEADWESVSSILQVGGTIIGSARCQAFRTREGRLKAACNLLQRGITNLCVIGGDGSLTGANLFRKEWSGLLEELARNGQIDKEAVQKYAYLNVVGMVGSIDNDFCGTDMTIGTDSALHRIIEVVDAIMTTAQSHQRTFVLEVMGRHCGYLALVSALACGADWVFLPESPPEEGWEEQMCVKLSENRARKKRLNIIIVAEGAIDTQNKPITSEKIKELVVTQLGYDTRVTILGHVQRGGTPSAFDRILASRMGVEAVIALLEATPDTPACVVSLNGNHAVRLPLMECVQMTQDVQKAMDERRFQDAVRLRGRSFAGNLNTYKRLAIKLPDDQIPKTNCNVAVINVGAPAAGMNAAVRSAVRVGIADGHRMLAIYDGFDGFAKGQIKEIGWTDVGGWTGQGGSILGTKRVLPGKYLEEIATQMRTHSINALLIIGGFEAYLGLLELSAAREKHEEFCVPMVMVPATVSNNVPGSDFSIGADTALNTITDTCDRIKQSASGTKRRVFIIETMGGYCGYLANMGGLAAGADAAYIFEEPFDIRDLQSNVEHLTEKMKTTIQRGLVLRNESCSENYTTDFIYQLYSEEGKGVFDCRKNVLGHMQQGGAPSPFDRNFGTKISARAMEWITAKLKEARGRGKKFTTDDSICVLGISKRNVIFQPVAELKKQTDFEHRIPKEQWWLKLRPLMKILAKYKASYDVSDSGQLEHVQPWSV
B2: HK2 (enzyme, UniProt P52789 1-917)
chain: MIASHLLAYFFTELNHDQVQKVDQYLYHMRLSDETLLEISKRFRKEMEKGLGATTHPTAAVKMLPTFVRSTPDGTEHGEFLALDLGGTNFRVLWVKVTDNGLQKVEMENQIYAIPEDIMRGSGTQLFDHIAECLANFMDKLQIKDKKLPLGFTFSFPCHQTKLDESFLVSWTKGFKSSGVEGRDVVALIRKAIQRRGDFDIDIVAVVNDTVGTMMTCGYDDHNCEIGLIVGTGSNACYMEEMRHIDMVEGDEGRMCINMEWGAFGDDGSLNDIRTEFDQEIDMGSLNPGKQLFEKMISGMYMGELVRLILVKMAKEELLFGGKLSPELLNTGRFETKDISDIEGEKDGIRKAREVLMRLGLDPTQEDCVATHRICQIVSTRSASLCAATLAAVLQRIKENKGEERLRSTIGVDGSVYKKHPHFAKRLHKTVRRLVPGCDVRFLRSEDGSGKGAAMVTAVAYRLADQHRARQKTLEHLQLSHDQLLEVKRRMKVEMERGLSKETHASAPVKMLPTYVCATPDGTEKGDFLALDLGGTNFRVLLVRVRNGKWGGVEMHNKIYAIPQEVMHGTGDELFDHIVQCIADFLEYMGMKGVSLPLGFTFSFPCQQNSLDESILLKWTKGFKASGCEGEDVVTLLKEAIHRREEFDLDVVAVVNDTVGTMMTCGFEDPHCEVGLIVGTGSNACYMEEMRNVELVEGEEGRMCVNMEWGAFGDNGCLDDFRTEFDVAVDELSLNPGKQRFEKMISGMYLGEIVRNILIDFTKRGLLFRGRISERLKTRGIFETKFLSQIESDCLALLQVRAILQHLGLESTCDDSIIVKEVCTVVARRAAQLCGAGMAAVVDRIRENRGLDALKVTVGVDGTLYKLHPHFAKVMHETVKDLAPKCDVSFLQSEDGSGKGAALITAVACRIREAGQR

The chains behind the UniProt entries cited, without tags or fusion partners. Residues count along the entry.
UniProt P14618, residues 14-531: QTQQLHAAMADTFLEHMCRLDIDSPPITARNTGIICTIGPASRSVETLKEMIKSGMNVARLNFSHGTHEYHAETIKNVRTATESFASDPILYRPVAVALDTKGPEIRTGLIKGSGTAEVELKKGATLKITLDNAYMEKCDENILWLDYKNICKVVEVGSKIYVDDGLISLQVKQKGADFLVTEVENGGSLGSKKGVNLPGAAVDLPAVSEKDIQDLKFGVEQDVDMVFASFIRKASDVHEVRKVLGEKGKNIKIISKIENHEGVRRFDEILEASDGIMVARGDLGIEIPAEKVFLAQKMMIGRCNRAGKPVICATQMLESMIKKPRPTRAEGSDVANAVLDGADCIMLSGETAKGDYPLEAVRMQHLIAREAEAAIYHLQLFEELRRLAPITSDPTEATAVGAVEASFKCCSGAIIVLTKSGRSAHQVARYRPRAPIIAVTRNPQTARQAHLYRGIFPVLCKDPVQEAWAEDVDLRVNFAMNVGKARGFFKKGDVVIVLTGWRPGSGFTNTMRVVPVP
UniProt P06733: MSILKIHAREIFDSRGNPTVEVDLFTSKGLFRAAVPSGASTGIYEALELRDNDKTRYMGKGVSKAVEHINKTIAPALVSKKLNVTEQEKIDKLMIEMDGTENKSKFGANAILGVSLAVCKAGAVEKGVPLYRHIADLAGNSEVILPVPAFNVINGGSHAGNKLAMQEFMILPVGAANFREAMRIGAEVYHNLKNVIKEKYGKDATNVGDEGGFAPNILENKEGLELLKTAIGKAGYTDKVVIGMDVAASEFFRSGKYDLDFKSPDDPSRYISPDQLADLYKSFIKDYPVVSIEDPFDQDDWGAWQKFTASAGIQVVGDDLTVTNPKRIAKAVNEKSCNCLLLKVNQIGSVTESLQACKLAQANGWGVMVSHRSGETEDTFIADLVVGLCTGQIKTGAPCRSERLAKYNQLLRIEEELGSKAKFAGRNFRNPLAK
UniProt P04406: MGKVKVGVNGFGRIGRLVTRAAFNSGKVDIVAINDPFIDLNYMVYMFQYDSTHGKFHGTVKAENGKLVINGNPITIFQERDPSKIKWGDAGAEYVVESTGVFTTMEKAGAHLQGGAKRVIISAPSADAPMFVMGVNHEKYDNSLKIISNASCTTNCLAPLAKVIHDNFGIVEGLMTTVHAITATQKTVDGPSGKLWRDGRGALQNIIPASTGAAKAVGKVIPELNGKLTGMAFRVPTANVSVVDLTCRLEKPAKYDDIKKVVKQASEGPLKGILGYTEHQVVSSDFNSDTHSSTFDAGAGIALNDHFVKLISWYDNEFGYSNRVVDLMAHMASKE

What follows are molecules tested against sfcherry-PKM2 (Pyruvate Kinase M2) (UniProt P14618) (assay: FACS sorting of fluorescent aggregates with immunoblotting; sfcherry-PKM2 aggregates isolated from HeLa lysate as for the MS analysis; immunoblotting of PKM2 and of proteins with high abundance in the MS results).
For “α-Enolase (ENO1) (from UniProt P06733 1-434) (enzyme)”, the binding was “binds”.
In the case of “Glyceraldehyde-3-phosphate dehydrogenase (GAPDH) (from UniProt P04406 1-335) (enzyme)”, the binding is reported as “binds”.
In the case of B1, the binding is reported as “binds”.
B2 was tested, and the binding was “no binding”.

Reference: paper PMC11233639
